Measured values reported in patent US20140193400A1 (ESBATECH AN ALCON BIOMEDICAL RESEARCH UNIT, published 2014).
No constants are given. Whether binding was seen depends on the method and setting. Some results given as binding are weak or reduced against the parent protein; the word gives no strength.

Amino acid sequences for entries named in this document (tags omitted). Residues count along the entry.
UniProt P01375, residues 77-233: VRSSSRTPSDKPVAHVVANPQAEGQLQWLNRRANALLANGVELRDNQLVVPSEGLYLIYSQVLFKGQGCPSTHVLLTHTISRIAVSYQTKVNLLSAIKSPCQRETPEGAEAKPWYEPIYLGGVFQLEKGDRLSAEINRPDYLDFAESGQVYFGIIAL

Biological target: recombinant human TNFalpha (human, UniProt P01375 77-233)
Assay: secretion ELISA on TNFα, bacterial culture supernatant not normalised for single-chain antibody content

binding: binds
B1: EP19_max (scFv)
scFv: EIVMTQSPSTLSASVGDRVIITCQASDNIYRGLAWYQQKPGKAPKLLIYDASTLQSGVPSRFSGSGSGTQFTLTISSLQPDDFATYYCLGVYGYSSDDGAAFGQGTKLTVLGGGGGSGGGGSGGGGSGGGGSEVQLVESGGGLVQPGGSLRLSCTVSGFSLNSNEISWVRQAPGKGLEWVGYIGNGGMTHYASWAKGRFTISRDTSKNTVYLQMNSLRAEDTAVYYCASSVEYTDLYYLNIWGQGTLVTVSS
notes: also called 1007; EP19maxmod
